In article PMC5295593:
Results are given in words; binding and its absence hold for the method and conditions named. Binding seen in cells or lysates may run through a third protein. Binding calls can cover weak binding; strength is not graded here. Where a sequence is shown, tags or fusion partners need not be part of it.

T1: AOD2 protein carrying a triple myc tag at its carboxy-terminus (Neurospora crassa) (UniProt Q1K521)
T1 sequence: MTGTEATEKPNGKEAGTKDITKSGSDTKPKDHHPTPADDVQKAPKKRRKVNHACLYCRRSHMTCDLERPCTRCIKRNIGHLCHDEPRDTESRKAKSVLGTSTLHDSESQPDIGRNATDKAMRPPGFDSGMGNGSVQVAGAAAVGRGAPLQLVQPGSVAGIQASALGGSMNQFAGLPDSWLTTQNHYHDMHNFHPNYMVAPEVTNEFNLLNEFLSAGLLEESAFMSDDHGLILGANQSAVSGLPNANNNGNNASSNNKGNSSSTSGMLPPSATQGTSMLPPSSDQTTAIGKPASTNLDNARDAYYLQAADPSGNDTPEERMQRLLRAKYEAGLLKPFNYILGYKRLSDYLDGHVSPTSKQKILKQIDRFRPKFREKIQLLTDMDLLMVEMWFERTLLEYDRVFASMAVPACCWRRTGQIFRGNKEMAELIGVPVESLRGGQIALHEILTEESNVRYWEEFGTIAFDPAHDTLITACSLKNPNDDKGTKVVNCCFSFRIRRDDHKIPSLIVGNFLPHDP


How the values were obtained:
[1] = target: T1, AOD2 protein carrying a triple myc tag at its carboxy-terminus (Neurospora crassa); experiment: co-IP; proteins salt-extracted (0.2 M KCl final) from purified nuclei of the double-tagged strain, desalted; IP with anti-HA or anti-myc antibodies bound to agarose beads (Pierce ProFound HA or c-Myc Tag IP/Co-IP kit); blots of the eluates; cultures grown in the presence or absence of chloramphenicol (Cm), results virtually identical
[2] = target: AOD5 protein carrying a triple HA tag at its amino-terminus (Neurospora crassa); experiment: as above

binding [1]	binding [2]	Molecule
binds	–	AOD5 protein carrying a triple HA tag at its amino-terminus (Neurospora crassa)
–	binds	AOD2 protein carrying a triple myc tag at its carboxy-terminus (protein, UniProt Q1K521 1-517) MTGTEATEKPNGKEAGTKDITKSGSDTKPKDHHPTPADDVQKAPKKRRKVNHACLYCRRSHMTCDLERPCTRCIKRNIGHLCHDEPRDTESRKAKSVLGTSTLHDSESQPDIGRNATDKAMRPPGFDSGMGNGSVQVAGAAAVGRGAPLQLVQPGSVAGIQASALGGSMNQFAGLPDSWLTTQNHYHDMHNFHPNYMVAPEVTNEFNLLNEFLSAGLLEESAFMSDDHGLILGANQSAVSGLPNANNNGNNASSNNKGNSSSTSGMLPPSATQGTSMLPPSSDQTTAIGKPASTNLDNARDAYYLQAADPSGNDTPEERMQRLLRAKYEAGLLKPFNYILGYKRLSDYLDGHVSPTSKQKILKQIDRFRPKFREKIQLLTDMDLLMVEMWFERTLLEYDRVFASMAVPACCWRRTGQIFRGNKEMAELIGVPVESLRGGQIALHEILTEESNVRYWEEFGTIAFDPAHDTLITACSLKNPNDDKGTKVVNCCFSFRIRRDDHKIPSLIVGNFLPHDP
